# PubChem BioAssay AID504786 | Drosophila RNAi Screening Center | 2011
# Test: 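Knock-downs reducing HIF reporter induction by the iron chelator DFO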 (primary screen)
# System: Drosophila S2 cells with a stable HIF luciferase reporter
# Reagents: long dsRNA against Drosophila genes, about 0.2 µg dsRNA per well of a 384-well plate
# Timing: three days of knock-down, then 20 h of DFO before reading
# Conditions: desferrioxamine (DFO) at 100 µM, an iron chelator that mimics hypoxia, for 20 h
# Detection: 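HIF reporter luminescence in cells given 100 µM DFO for 20 h, using the mouse ldh-a hypoxia-response element, scored as per-plate z-scores; higher means greater loss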
# Direction: z-score: higher = stronger loss of HIF reporter signal
# The screen tested about 21,000 reagents; this is an unselected part of those that have a named target and a result. 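Primary screen; positive scores mean lost reporter signal, so the sign may be inverted from the usual convention.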 Names joined by + are all predicted targets of the reagent.
target,dsRNA,"z-score, replicate 1","z-score, replicate 2","z-score, replicate 3","z-score, replicate 4"
CG8087,DRSC16375,-0.3,-0.5,,
PIG-O (Phosphatidylinositol glycan anchor biosynthesis class O),DRSC06123,-0.2,0.2,,
Irp-1B (Iron regulatory protein 1B),DRSC16720,-0.3,-0.5,,
CG1208,DRSC12190,-0.4,-0.3,,
CG14823,DRSC10194,-0.1,0.2,,
PVRAP (PVR adaptor protein),DRSC09966,0.3,-0.4,,
PVRAP (PVR adaptor protein),DRSC10577,0.2,0.1,,
CG12848,DRSC04128,-0.4,0.1,,
CG34221,DRSC06150,0,0.1,,
CG40486,DRSC20619,0,0.3,,
CG6891,DRSC20016,-0.3,-0.2,,
Ag5r (Antigen 5-related),DRSC19327,-0.3,-0.2,,
obst-E (obstructor-E),DRSC02128,-0.3,0.5,,
CG14020,DRSC02350,-0.4,-0.2,,
Lectin-galC1 (Galactose-specific C-type lectin),DRSC03362,-0.2,-0.3,,
CG17239,DRSC00492,-0.1,-0.5,,
Den1 (Deneddylase 1),DRSC07195,-0.2,-0.3,,
Tsr1 (Tsr1 ribosome assembly factor),DRSC11821,-0.2,0.5,,
Lcp65Ag3 + Lcp65Ag2 + Lcp65Ag1,DRSC11214,-0.3,-0.7,,
Lcp65Ag3 + Lcp65Ag2 + Lcp65Ag1,DRSC11215,-0.3,-0.6,,
CG1602,DRSC06601,-0.2,0,,
CG12522,DRSC09088,-0.1,-0.1,,
udd (under-developed),DRSC06720,-0.2,-0.2,,
dUTPase (Deoxyuridine triphosphatase),DRSC01998,-0.3,-0.8,,
CG14126 (retired record),DRSC10130,-0.1,-0.2,,
AnxB9 (Annexin B9),DRSC14111,-0.2,-0.4,,
Ubx (Ultrabithorax),DRSC16891,-0.5,-0.5,-0.4,0
"DCTN2-p50 (Dynactin 2, p50 subunit)",DRSC07132,-0.4,-0.3,,
CG32461,DRSC11594,-0.7,-1,,
CG9582,DRSC03267,-0.1,-0.3,,
CG14104,DRSC10106,-0.3,0,,
ChT (Choline transporter),DRSC16296,-0.2,-0.3,,
Arts + Apl,DRSC10349,-0.2,-0.5,,
Ufsp1 (UFM1 specific peptidase 1),DRSC04958,0.3,-0.1,,
CG34030,DRSC08866,-0.3,0.3,,
Xrp1,DRSC15282,4.1,4.9,,
Xrp1,DRSC15283,1.2,1.5,,
Teh1 (tipE homolog 1),DRSC14544,-0.4,-0.7,,
Shawl (Shaw-like),DRSC02209,-0.3,-0.2,,
Shawl (Shaw-like),DRSC02748,-0.3,-0.6,,
Tim17a2,DRSC12252,-0.3,-0.5,,
CG31869,DRSC02582,-0.2,-0.1,,
CG31869,DRSC02674,-0.3,-0.3,,
CG34253,DRSC09531,-0.4,-0.3,,
Naa60 (N(alpha)-acetyltransferase 60),DRSC10301,-0.2,0,,
CG34159,DRSC02885,3.1,2,,
Zn72D (Zinc-finger protein at 72D),DRSC11318,-0.2,-0.4,,
CG11247,DRSC11643,-0.3,-0.6,-0.1,-0.1
CG13160,DRSC06284,-0.4,-0.2,,
CG4218,DRSC01939,2.9,-0.4,,
Rga (Regena),DRSC12364,-0.7,-1.8,,
nullo,DRSC18807,-0.1,-0.4,,
CG14075,DRSC10080,-0.3,0,,
"Prosalpha6T (Proteasome alpha6 subunit, Testis-specific)",DRSC02873,-0.3,0.1,,
Sod3 (Superoxide dismutase 3),DRSC07324,-0.2,-0.1,,
CG12126,DRSC06103,-0.2,0.4,,
CG12842 (retired record),DRSC06188,-0.2,0,,
Clk (Clock),DRSC11117,-0.2,0.2,,
Proc (Proctolin),DRSC03009,1.6,5.1,,
CG2811,DRSC04318,0.1,0.1,,
loco (locomotion defects),DRSC15202,0.1,1.2,,
loco (locomotion defects),DRSC16989,0,0.1,,
Alg-2 (Apoptosis-linked gene-2),DRSC07799,-0.2,0,,
ac (achaete),DRSC18734,0.1,0.5,,
Ugt303B3 (UDP-glycosyltransferase family 303 member B3),DRSC14199,-0.1,0.9,,
CYTB (retired record),DRSC21272,-0.4,-0.2,,
CG12159,DRSC06114,-0.2,0.2,,
Rassf (Ras association family member),DRSC15612,-0.4,-0.6,,
5-HT1B (5-hydroxytryptamine (serotonin) receptor 1B),DRSC05031,-0.2,-0.2,,
5-HT1B (5-hydroxytryptamine (serotonin) receptor 1B),DRSC05769,3.6,4.1,,
Tusp,DRSC15838,0.2,1.1,,
ix (intersex),DRSC06325,1.5,0.5,,
CG3815,DRSC18324,0,-0.3,,
yuri (yuri gagarin),DRSC01453,-0.7,0.8,,
yuri (yuri gagarin),DRSC01454,1.1,0.5,,
yuri (yuri gagarin),DRSC01943,-0.1,-0.5,,
yuri (yuri gagarin),DRSC01972,-0.4,-0.6,,
SkpC (SKP1-related C),DRSC20375,-0.3,-0.1,,
CG17744,DRSC10286,-0.4,-0.8,,
CG8012,DRSC10951,-0.1,-0.4,,
CG6937 + btn,DRSC16917,-0.1,-0.4,,
PIG-C (Phosphatidylinositol glycan anchor biosynthesis class C),DRSC08241,-0.1,-0.4,,
CG8460,DRSC03090,-0.3,-0.6,,
